Measurements reported in the supplement of paper PMC10849652.
The other results are listed elsewhere or left out.

Chains of the proteins cited; added tags and fusions are not shown. Lines headed by an entry give the natural chain unless they say otherwise; changes in a name come on top.
UniProt O75955: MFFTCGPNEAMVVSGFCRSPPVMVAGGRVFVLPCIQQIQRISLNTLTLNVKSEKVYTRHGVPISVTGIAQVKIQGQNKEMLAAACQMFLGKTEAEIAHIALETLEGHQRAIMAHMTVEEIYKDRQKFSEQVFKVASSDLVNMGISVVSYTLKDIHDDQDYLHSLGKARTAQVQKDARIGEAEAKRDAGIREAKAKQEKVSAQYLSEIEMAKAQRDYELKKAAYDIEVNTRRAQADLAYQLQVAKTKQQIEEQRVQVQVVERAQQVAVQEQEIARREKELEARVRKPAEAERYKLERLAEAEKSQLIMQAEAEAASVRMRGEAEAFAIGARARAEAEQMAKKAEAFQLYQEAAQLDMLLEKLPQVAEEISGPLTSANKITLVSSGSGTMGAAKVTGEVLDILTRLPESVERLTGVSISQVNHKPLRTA
UniProt Q0JRZ9: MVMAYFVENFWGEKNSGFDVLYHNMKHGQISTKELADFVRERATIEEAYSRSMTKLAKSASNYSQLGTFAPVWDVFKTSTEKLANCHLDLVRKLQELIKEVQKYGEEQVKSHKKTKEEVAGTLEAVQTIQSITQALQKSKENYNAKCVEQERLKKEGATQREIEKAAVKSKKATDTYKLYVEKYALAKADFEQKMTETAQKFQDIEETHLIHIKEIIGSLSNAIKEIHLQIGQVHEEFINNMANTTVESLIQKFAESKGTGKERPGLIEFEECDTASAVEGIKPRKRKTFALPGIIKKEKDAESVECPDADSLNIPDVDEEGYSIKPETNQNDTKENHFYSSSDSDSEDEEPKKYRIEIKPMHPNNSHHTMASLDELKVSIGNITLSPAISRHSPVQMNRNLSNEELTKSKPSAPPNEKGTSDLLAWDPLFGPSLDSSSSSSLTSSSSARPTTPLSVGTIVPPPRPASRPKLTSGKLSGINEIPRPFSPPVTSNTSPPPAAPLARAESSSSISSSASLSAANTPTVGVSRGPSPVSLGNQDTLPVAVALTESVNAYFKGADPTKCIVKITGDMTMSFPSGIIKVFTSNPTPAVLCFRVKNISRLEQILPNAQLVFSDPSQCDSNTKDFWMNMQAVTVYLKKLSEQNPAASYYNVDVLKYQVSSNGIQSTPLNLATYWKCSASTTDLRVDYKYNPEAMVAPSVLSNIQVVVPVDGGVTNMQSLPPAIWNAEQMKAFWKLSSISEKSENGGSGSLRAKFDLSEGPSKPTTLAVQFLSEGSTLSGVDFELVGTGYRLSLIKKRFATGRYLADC
UniProt O95302: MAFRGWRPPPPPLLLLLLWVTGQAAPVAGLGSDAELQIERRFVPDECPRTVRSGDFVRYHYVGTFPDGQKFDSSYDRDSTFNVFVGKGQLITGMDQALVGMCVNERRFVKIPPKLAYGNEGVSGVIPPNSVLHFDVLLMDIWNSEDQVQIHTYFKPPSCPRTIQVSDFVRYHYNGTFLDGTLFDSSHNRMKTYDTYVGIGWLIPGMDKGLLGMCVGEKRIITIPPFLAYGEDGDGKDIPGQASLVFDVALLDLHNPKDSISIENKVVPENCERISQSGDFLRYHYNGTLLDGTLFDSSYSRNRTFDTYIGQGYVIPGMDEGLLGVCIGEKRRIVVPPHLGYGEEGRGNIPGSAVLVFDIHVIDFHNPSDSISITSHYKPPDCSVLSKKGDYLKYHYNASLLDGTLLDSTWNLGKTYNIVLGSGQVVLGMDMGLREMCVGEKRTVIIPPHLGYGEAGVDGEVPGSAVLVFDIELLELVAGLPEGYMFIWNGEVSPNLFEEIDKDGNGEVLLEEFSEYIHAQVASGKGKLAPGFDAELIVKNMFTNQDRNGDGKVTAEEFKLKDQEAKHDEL
UniProt P23142: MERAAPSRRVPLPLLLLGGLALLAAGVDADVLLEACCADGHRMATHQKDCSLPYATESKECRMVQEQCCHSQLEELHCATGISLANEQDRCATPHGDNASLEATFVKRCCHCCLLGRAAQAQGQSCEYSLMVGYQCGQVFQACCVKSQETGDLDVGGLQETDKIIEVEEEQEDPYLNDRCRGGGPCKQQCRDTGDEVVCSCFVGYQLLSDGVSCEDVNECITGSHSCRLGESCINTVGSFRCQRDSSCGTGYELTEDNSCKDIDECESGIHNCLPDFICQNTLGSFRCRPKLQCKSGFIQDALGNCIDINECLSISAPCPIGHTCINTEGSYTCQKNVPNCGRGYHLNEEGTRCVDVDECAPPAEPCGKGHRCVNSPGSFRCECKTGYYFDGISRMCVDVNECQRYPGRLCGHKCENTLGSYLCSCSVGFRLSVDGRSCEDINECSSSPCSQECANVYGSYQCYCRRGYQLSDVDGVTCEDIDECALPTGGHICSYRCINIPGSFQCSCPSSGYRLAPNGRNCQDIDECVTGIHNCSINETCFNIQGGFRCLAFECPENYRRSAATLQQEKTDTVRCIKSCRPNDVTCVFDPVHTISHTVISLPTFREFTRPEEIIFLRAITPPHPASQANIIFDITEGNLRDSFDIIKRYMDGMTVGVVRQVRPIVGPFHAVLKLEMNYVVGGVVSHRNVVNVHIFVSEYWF
UniProt Q13643: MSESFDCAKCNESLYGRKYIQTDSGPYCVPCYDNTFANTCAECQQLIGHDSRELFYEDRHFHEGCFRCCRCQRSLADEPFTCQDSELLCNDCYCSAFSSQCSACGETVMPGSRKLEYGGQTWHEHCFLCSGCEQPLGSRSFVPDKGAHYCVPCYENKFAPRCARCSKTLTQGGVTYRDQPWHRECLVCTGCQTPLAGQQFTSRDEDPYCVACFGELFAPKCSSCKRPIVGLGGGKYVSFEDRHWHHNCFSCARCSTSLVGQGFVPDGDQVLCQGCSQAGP
UniProt P02675: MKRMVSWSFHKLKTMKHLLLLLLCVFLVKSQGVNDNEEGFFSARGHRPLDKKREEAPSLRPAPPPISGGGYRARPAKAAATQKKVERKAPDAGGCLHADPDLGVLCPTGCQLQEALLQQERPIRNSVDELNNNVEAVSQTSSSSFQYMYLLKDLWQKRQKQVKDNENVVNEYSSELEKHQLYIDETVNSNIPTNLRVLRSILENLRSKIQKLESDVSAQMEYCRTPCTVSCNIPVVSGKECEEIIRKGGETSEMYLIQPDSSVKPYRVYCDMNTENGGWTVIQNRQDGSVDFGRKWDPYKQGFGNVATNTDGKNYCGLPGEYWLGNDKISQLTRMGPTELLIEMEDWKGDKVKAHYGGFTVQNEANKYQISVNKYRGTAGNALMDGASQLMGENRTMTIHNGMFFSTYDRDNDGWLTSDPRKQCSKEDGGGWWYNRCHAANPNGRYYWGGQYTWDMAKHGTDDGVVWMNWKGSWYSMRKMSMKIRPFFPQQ
UniProt Q92913: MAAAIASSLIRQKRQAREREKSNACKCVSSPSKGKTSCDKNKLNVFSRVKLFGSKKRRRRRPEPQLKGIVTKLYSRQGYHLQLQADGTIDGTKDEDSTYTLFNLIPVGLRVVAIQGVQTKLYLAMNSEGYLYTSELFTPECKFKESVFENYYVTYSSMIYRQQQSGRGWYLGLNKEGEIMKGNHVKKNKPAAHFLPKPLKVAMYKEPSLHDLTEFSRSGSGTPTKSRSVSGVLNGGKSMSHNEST
UniProt Q96ME1: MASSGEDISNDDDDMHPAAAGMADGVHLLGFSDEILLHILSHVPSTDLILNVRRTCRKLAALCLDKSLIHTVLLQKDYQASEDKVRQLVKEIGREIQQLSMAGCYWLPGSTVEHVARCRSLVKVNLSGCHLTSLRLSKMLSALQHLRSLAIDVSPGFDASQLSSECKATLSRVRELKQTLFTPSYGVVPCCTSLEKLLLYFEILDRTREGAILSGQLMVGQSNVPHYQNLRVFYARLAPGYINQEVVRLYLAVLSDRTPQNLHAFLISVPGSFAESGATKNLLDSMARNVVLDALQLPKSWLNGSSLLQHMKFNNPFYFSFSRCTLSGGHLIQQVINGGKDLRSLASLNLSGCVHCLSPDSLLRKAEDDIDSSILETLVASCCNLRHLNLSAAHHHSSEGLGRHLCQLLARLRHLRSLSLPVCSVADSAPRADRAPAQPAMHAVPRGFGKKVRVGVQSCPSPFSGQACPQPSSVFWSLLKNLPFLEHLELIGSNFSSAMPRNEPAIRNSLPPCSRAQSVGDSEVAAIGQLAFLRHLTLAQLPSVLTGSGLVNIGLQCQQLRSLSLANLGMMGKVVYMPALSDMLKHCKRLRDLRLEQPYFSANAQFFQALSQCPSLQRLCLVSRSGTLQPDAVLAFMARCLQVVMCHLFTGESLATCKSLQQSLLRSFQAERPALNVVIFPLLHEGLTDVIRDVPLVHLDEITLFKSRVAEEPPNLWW
UniProt Q8NFZ0: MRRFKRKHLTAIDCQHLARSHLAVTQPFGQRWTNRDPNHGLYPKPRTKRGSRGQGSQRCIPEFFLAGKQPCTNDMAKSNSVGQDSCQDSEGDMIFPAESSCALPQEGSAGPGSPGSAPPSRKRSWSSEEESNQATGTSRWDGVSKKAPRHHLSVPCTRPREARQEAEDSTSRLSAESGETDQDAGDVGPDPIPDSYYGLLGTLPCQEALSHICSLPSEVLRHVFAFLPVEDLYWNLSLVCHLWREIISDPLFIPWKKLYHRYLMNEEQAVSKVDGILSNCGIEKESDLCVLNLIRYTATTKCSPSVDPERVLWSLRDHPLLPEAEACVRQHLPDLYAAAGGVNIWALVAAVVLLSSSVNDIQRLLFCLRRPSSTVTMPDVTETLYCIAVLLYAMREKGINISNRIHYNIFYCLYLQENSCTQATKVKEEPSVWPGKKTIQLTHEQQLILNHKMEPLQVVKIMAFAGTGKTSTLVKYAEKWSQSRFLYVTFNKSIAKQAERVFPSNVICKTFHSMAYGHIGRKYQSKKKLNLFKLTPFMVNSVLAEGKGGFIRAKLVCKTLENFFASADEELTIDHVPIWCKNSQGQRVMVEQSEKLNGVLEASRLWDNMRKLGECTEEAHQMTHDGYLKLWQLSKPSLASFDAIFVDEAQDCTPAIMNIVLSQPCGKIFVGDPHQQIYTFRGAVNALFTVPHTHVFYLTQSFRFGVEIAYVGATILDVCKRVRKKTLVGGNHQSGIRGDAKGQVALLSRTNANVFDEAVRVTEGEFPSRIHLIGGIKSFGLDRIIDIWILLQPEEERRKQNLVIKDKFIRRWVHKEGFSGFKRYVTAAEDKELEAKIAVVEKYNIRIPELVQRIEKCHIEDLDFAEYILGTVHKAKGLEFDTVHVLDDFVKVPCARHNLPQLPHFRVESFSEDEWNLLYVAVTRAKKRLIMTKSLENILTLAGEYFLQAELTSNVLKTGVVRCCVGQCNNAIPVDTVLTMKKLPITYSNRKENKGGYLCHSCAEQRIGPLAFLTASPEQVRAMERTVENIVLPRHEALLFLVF
UniProt Q14318: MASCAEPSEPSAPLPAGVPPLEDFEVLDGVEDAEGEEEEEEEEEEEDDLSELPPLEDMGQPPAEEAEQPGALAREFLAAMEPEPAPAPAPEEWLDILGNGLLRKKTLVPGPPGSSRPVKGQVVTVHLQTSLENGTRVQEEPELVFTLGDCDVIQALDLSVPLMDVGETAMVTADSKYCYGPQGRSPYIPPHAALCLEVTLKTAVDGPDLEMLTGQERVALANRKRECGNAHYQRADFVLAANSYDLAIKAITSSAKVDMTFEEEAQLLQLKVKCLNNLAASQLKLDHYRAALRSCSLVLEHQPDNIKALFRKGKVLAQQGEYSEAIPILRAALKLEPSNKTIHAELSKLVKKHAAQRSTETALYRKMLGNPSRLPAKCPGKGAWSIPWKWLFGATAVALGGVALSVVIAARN
UniProt Q9Y5Y0: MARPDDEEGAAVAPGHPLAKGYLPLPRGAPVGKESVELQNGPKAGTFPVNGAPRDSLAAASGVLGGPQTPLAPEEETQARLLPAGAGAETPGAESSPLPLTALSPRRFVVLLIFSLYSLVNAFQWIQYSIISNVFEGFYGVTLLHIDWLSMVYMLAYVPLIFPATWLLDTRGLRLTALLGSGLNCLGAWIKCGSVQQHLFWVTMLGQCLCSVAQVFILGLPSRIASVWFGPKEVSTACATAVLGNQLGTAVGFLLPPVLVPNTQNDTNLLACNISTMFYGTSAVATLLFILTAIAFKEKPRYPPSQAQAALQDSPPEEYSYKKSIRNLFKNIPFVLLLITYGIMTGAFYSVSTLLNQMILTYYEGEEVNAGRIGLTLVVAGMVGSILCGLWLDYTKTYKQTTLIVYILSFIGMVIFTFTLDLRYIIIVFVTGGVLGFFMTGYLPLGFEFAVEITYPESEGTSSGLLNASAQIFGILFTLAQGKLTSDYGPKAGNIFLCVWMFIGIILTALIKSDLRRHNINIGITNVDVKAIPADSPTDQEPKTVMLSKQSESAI
UniProt Q14192: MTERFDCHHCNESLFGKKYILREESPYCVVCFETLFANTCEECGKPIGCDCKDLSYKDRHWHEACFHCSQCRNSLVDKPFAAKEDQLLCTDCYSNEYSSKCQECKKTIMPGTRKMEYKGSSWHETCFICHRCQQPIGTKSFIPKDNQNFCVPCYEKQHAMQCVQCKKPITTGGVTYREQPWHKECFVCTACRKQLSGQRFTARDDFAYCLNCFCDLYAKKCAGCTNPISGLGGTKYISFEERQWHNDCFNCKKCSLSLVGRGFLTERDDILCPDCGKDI

Compound: c1cn2cc(-c3ccc4cn[nH]c4c3)nc(Nc3ccc(N4CCOCC4)cc3)c2n1 [entospletinib]
Assay: log2 fold change, soluble protein after heating vs DMSO (PISA); higher = thermal stabilisation; K562 cells, 10 uM, 30 min; active = over 0.2 and 3.5 SD of the protein, either way, in both replicates (recomputed)
Summary of the method: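 For each measurement, 10 μM compound was applied for 30 min to K562 cells at 2×10^6 cells/mL. Aliquots were heated for 3 min across 48°C-58°C, pooled, and extracted in PBS with 0.5% NP-40 at 4°C; the supernatant after 21,000xg for 90 min was soluble protein. This was quantified by TMTpro 16plex LC-MS/MS with channel sums equalised, and thermal stability was reported relative to control samples from duplicates, on a log2 fold-change scale.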

log2 fold change, inactive:
FLOT1 (UniProt O75955) 0.173
FAM234A (UniProt Q9H0X4) 0.048
FCHO2 (UniProt Q0JRZ9) 0.111
FDX2 (UniProt Q6P4F2) 0.053
FAM98B (UniProt Q52LJ0) 0.058
FAU (UniProt P62861) 0.137
FKBP9 (UniProt O95302) 0.027
FBLN1 (UniProt P23142) 0.178
FCSK isoform 2 (UniProt Q8N0W3) -0.008
FAM98A (UniProt Q8NCA5) 0.099
FAM8A1 (UniProt Q9UBU6) 0.014
FBXO30 (UniProt Q8TB52) -0.025
FHL3 (UniProt Q13643) 0.033
FAT3 isoform 1 (UniProt Q8TDW7) 0.352
FBXO22 (UniProt Q8NEZ5) -0.023
FGB (UniProt P02675) 0.16
FGF13 isoform 3 (UniProt Q92913) 0.001
FBXL18 isoform 4 (UniProt Q96ME1) 0.017
FAM49B (UniProt Q9NUQ9) 0.023
FBH1 isoform 2 (UniProt Q8NFZ0) 0.011
FBXO4 (UniProt Q9UKT5) 0.01
FKBP8 isoform 2 (UniProt Q14318) 0.036
FBXO38 (UniProt Q6PIJ6) -0.004
FLNB isoform 8 (UniProt O75369) 0.046
FKBPL (UniProt Q9UIM3) -0.012
FLVCR1 (UniProt Q9Y5Y0) -0.035
FBXL12 (UniProt Q9NXK8) -0.008
FHL2 (UniProt Q14192) -0.008

Retrieved one by one from the list above:
log2 fold change, inactive:
FAM98A (UniProt Q8NCA5) 0.099
FLOT1 (UniProt O75955) 0.173
